These are yes or no findings as the source states them, for the method shown. Some entries that bind do so weakly or less than the wild type. Tags and fused reporters may be left off the sequences shown.
Target: T1, ribosomal protein uL16 of the 60S large ribosomal subunit (Saccharomyces cerevisiae) (S. cerevisiae) (UniProt P41805)
T1 sequence: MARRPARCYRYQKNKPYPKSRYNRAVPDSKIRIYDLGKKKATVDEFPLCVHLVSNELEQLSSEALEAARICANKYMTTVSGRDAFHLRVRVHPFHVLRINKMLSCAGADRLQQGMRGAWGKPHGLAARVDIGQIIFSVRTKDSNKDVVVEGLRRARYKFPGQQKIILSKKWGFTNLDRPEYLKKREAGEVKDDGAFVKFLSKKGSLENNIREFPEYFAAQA
Assay: cryo-EM structure

- binding: binds
B1: eukaryotic translation initiation factor eIF5B (Saccharomyces cerevisiae) (protein, UniProt P39730 1-1002)
chain: MAKKSKKNQQNYWDEEFEEDAAQNEEISATPTPNPESSAGADDTSREASASAEGAEAIEGDFMSTLKQSKKKQEKKVIEEKKDGKPILKSKKEKEKEKKEKEKQKKKEQAARKKAQQQAQKEKNKELNKQNVEKAAAEKAAAEKSQKSKGESDKPSASAKKPAKKVPAGLAALRRQLELKKQLEEQEKLEREEEERLEKEEEERLANEEKMKEEAKAAKKEKEKAKREKRKAEGKLLTRKQKEEKKLLERRRAALLSSGNVKVAGLAKKDGEENKPKKVVYSKKKKRTTQENASEAIKSDSKKDSEVVPDDELKESEDVLIDDWENLALGDDDEEGTNEETQESTASHENEDQNQGEEEEEGEEEEEEEEERAHVHEVAKSTPAATPAATPTPSSASPNKKDLRSPICCILGHVDTGKTKLLDKIRQTNVQGGEAGGITQQIGATYFPIDAIKAKTKVMAEYEKQTFDVPGLLVIDTPGHESFSNLRSRGSSLCNIAILVIDIMHGLEQQTIESIKLLRDRKAPFVVALNKIDRLYDWKAIPNNSFRDSFAKQSRAVQEEFQSRYSKIQLELAEQGLNSELYFQNKNMSKYVSIVPTSAVTGEGVPDLLWLLLELTQKRMSKQLMYLSHVEATILEVKVVEGFGTTIDVILSNGYLREGDRIVLCGMNGPIVTNIRALLTPQPLRELRLKSEYVHHKEVKAALGVKIAANDLEKAVSGSRLLVVGPEDDEDELMDDVMDDLTGLLDSVDTTGKGVVVQASTLGSLEALLDFLKDMKIPVMSIGLGPVYKRDVMKASTMLEKAPEYAVMLCFDVKVDKEAEQYAEQEGIKIFNADVIYHLFDSFTAYQEKLLEERRKDFLDYAIFPCVLQTLQIINKRGPMIIGVDVLEGTLRVGTPICAVKTDPTTKERQTLILGKVISLEINHQPVQEVKKGQTAAGVAVRLEDPSGQQPIWGRHVDENDTLYSLVSRRSIDTLKDKAFRDQVARSDWLLLKKLKVVFGIE

— paper doi:10.1101/2020.05.30.125153
